These are yes or no findings as the source states them, for the method shown. A result given as binding can be weak or reduced; the word gives no strength. For some assays here: Where a sequence is shown, tags or fusion partners need not be part of it.
What was measured:
[1] = target: SUMO fused ACR4 intracellular domain (sACR4), unphosphorylated (Arabidopsis) (UniProt Q9LX29); test: HDX-MS; sACR4 alone or with sCRK1 (ratios 1:1 or 1:3), unphosphorylated; 50 mM Bis Tris pH 7.2, 25 mM NaCl, 0.1 mM MnCl2, 1 mM DTT in D2O, 10-3600 s at 4°C; pepsin digest; both purified
[2] = target: SUMO fused ACR4 intracellular domain (sACR4), unphosphorylated (Arabidopsis) (UniProt Q9LX29); test: SEC; Superdex G-200 10/300; unphosphorylated proteins alone or mixed at 5 μM each, 1 h at room temperature; 50 mM Tris pH 7.4, 100 mM NaCl, 1 mM DTT, 100 μM MnCl2; fractions analysed by 12% SDS-PAGE; both purified
[3] = target: MBP fused ACR4 intracellular domain (mACR4), unphosphorylated (Arabidopsis) (UniProt Q9LX29); test: pull-down; mACR4 bait (20 μg, ~0.4 μM) on amylose resin, SUMO-fused prey (30 μg, ~1 μM); proteins naive or autophosphorylated 1 h with 100 μM ATP beforehand; Binding Buffer 50 mM Tris-HCl pH 7.4, 150 mM NaCl, 1 mM DTT, 0.02% NP-40, room temperature; coomassie and anti-SUMO blot; both purified
[4] = target: T1, MBP-fused WOX5 (mWOX5) (Arabidopsis) (UniProt Q8H1D2); test: pull-down; mWOX5 (or MBP) bait 20 μg on amylose resin, sACR4 (naive or autophosphorylated) or SUMO prey 30 μg; Binding Buffer 50 mM Tris-HCl pH 7.4, 150 mM NaCl, 1 mM DTT, 0.02% NP-40, room temperature; coomassie and anti-SUMO blot; both purified
T1 sequence: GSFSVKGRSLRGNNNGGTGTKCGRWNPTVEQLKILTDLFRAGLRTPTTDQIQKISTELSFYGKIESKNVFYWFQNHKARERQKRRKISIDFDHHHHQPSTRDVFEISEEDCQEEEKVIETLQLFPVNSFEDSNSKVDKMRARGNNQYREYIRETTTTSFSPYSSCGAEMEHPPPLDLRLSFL

By UniProt entry, the sequences of proteins in these tests, tags left out. Where a name states a change or a piece, a line headed by the entry shows the natural chain unless it says otherwise.
UniProt Q9LX29: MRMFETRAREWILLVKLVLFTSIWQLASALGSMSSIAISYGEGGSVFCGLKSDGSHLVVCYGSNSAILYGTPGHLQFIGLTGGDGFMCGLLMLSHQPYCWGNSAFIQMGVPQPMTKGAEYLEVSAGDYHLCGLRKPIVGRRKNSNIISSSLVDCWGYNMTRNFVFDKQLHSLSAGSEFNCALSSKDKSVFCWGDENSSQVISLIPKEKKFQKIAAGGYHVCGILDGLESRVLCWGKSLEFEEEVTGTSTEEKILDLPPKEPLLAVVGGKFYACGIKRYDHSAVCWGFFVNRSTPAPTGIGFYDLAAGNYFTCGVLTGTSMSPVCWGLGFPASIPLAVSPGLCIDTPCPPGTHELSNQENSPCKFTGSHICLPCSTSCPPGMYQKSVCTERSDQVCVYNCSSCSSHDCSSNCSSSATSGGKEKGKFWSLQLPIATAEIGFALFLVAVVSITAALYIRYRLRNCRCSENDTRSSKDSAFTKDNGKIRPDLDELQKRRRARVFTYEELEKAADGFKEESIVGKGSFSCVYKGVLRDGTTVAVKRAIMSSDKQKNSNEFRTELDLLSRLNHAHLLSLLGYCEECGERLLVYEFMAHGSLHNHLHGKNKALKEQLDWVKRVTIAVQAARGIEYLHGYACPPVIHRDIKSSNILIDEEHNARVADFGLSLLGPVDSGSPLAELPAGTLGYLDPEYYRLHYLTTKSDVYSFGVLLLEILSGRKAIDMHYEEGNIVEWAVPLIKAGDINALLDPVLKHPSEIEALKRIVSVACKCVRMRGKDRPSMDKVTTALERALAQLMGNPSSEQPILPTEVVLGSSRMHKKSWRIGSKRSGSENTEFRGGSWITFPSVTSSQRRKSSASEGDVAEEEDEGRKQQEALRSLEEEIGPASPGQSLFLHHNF
UniProt Q9FIJ6: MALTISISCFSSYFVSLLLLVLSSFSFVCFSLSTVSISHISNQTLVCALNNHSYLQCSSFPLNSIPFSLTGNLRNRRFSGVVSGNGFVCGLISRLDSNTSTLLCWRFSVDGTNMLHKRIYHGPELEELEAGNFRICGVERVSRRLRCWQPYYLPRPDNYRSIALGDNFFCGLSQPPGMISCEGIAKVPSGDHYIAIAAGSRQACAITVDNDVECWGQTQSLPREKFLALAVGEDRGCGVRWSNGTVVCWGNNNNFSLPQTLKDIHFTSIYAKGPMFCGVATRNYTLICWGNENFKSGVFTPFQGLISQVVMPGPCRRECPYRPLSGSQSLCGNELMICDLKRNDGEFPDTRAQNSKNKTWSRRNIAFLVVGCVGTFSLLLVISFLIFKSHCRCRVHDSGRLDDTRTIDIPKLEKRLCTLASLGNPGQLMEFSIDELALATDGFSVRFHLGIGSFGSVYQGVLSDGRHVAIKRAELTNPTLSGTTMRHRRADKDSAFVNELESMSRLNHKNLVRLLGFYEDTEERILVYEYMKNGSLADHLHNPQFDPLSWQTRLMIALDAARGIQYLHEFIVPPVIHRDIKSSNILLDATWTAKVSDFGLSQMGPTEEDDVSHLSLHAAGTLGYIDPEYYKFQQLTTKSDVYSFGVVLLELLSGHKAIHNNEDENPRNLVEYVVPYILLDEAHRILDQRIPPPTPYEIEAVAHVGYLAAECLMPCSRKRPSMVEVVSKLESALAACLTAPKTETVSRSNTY
UniProt Q9S7D9: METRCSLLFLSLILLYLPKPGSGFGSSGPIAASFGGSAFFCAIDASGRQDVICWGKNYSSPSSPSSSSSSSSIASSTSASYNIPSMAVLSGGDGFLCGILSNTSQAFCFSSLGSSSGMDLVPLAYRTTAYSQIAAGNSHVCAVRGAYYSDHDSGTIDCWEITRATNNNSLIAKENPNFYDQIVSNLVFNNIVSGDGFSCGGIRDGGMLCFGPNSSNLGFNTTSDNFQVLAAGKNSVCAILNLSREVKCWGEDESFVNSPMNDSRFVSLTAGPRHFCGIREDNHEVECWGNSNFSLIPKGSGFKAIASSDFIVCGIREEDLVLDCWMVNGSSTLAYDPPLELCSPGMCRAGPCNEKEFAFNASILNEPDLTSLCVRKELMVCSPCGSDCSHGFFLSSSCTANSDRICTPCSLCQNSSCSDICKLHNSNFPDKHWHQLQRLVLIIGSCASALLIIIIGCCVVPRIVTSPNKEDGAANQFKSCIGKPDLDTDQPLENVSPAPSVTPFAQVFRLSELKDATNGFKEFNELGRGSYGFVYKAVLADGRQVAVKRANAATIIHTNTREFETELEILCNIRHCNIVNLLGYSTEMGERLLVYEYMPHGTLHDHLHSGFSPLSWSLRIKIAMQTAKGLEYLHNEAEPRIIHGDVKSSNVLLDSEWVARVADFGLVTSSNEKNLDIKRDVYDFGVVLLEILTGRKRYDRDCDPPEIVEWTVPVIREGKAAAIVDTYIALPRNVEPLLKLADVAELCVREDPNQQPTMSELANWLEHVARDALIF
UniProt O80963: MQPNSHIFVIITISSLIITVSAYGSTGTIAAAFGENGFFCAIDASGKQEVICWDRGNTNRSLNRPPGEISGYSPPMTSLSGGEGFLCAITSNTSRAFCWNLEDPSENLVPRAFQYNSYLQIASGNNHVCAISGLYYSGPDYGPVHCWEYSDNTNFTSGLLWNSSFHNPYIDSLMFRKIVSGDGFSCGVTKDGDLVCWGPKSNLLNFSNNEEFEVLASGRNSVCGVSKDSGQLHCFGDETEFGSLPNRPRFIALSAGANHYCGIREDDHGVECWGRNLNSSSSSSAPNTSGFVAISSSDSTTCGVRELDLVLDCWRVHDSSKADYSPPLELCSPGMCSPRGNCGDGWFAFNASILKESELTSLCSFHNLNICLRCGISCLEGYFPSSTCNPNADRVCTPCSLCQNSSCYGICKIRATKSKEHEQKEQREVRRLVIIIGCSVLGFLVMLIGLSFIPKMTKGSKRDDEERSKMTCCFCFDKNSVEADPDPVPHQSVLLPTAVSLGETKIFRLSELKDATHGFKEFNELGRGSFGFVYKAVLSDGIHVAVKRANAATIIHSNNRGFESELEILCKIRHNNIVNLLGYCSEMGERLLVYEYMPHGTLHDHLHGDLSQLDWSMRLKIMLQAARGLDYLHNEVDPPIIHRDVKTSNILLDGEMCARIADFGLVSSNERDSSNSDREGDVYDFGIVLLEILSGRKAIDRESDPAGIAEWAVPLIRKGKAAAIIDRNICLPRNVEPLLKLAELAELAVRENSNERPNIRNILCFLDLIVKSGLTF

Row | binding [1] | binding [2] | binding [3] | binding [4] | Substance
1 | binds | binds | binds | – | SUMO fused CRK1 intracellular domain (sCRK1), unphosphorylated (from UniProt Q9FIJ6) (domain or fragment)
2 | – | – | binds | – | SUMO fused CRR1 intracellular domain (sCRR1), unphosphorylated (from UniProt Q9S7D9) (domain or fragment)
3 | – | binds | binds | – | SUMO fused CRR2 intracellular domain (sCRR2), unphosphorylated (from UniProt O80963) (domain or fragment)
4 | – | – | binds | binds | SUMO fused ACR4 intracellular domain (sACR4), unphosphorylated (from UniProt Q9LX29) (domain or fragment)

— PMC4355418
